From PubChem BioAssay AID901 (National Center for Advancing Translational Sciences (NCATS), 2007)
This is one part of the list. The main result of the screen is listed elsewhere. These columns were measured beside it and carry no call. The list favours compounds with an active or inconclusive main result. Potencies come from curve fits of mixed quality, noted in brackets.

Test: qHTS Assay for Identifying the Cell-Membrane Permeable IMPase Inhibitors
Conditions: CHO-M1 cells, IP1 accumulation, HTRF TR-FRET ratio; measured here: donor channel 620 nm AC50
Excerpt: NCGC IMPase Assay Overview
Lithium has been widely used for the treatment of bipolar disorder. But lithium has a narrow therapeutic index and it can cause side effects such as thirst, weight gain, tremor, polyuria and memory problems. Although the mechanism for lithium action in treatment of bipolar disorder is still not fully understood, inhibition of inositol monophosphatase (IMPase) and the subsequent depletion of the inositol pool in living cells have been implicated as the primary therapeutic benefit of lithium therapy. Therefore, a selective IMPase inhibitor with reduced side effects might be a good drug candidate to replace lithium for the treatment of bipolar disorder. Several IMPase inhibitors have been discovered previously. However, they are not suitable for therapeutic use because of their poor cell membrane penetrability or oral bioavailability; the development of new cell-permeable IMPase inhibitors is needed.
IMPase catalyzes the hydrolysis of inositol-1-phosphate (IP1) to release free inositol. Binding of an agonist to a Gq coupled GPCR results in the activation of PLC, which hydrolyzes the PIP2 to form inositol-1,4,5-trisphosphate (IP3) and diacyl glycerol (DAG). While DAG activates protein kinase C (PKC), IP3 triggers the elevation of intracellular free Ca2+. The IP3 is very rapidly inactivated by hydrolysis to IP2, IP1 and then inositol by a series of enzymes including IMPase. Free inositols are used for synthesis of PI and thus start another inositol cycle.
To identify new cell-permeable IMPase inhibitors, we developed a cell-based IMPase assay in which the cytosolic IP1 is measured by a time-resolved fluorescence resonance energy transfer (TR-FRET) assay. In this assay, an IP1 specific antibody is used to detect the labeled IP1 tracer. When the cell lysate contains the elevated IP1 due to the inhibition of IMPase, the TR-FRET between the labeled antibody and IP1 tracer is disrupted resulting in a reduction in the total signal. Since the TR-FRET is used, this cell-based assay is a homogenous assay without cell wash and medium change that is suitable for assay miniaturization and HTS.
NCGC IMPase Assay Protocol Summary
A Chinese hamster ovary (CHO) cell line stably expressing the M1 receptor (CHO-M1) was obtained from ATCC and maintained in F-12 Kaighn's media (Invitrogen, Carlsbad, CA, 21127) supplemented with 10 % FBS, 100 units/ml penicillin, 100 ug/ml streptomycin and 250 ug/ml geneticin at 37C, 5% CO2 in a humidified atmosphere. Before the assay, aliquots of cells were frozen and stored at -135C. The assay was performed in 1536-well format. Data are reported for both the ratio of the two emission wavelengths, and also for the component 'donor' channel, Em2=620. […] AC50 values were determined from concentration-response data modeled with the standard Hill equation.
IMPase 1536-well assay protocol:
(1) Plate 4 ul/well (2000 cells) of cell suspension from frozen CHO-M1 Cells in white, tissue culture treated 1536-well plates that are cultured at 37C, 5 % CO2 for 16 to 30 hours.
(2) Add 23 nl/well of compound in DMSO solution. The final titration for each compound was between 0.6 nM and 46 uM.
(3) Add 1 ul of carbachol (50 uM in stimulation buffer containing10mM HEPES, 1mM CaCl2, 0.5 mM MgCl2, 4.2 mM KCl, 146 mM NaCl, 5.5 mM glucose, 50mM LiCl, pH 7.4.
(4) Incubation at 37C, 5 % CO2 for 30 min.
(5) Add 1 ul/well of d2-conjugated IP1 (d2-IP1) and 1 ul/well of Eu+ cryptate conjugated anti-IP1 antibody (Eu+-Ab) prepared in the cell lysis buffer, both from the IP-One kit (Cisbio, MA).
(6) Incubate at room temperature for 10 minutes.
(7) Detect the assay plate (Ex = 320, Em1 =665 and Em2 620) in a ViewLux plate reader.
inositol monophosphatase, IMPase, IMPase inhibitor, lithium, bipolar disorder, IP-One, HTRF, qHTS, NIH roadmap, NCGC
Note: In the gene ID and protein GI references for this assay, rat IMPase is referenced instead of hampster as hamster accession numbers were not available.

Compound | AC50
COc1ccc(CNS(=O)(=O)c2cc(OCC(N)=O)c(C)cc2Cl)cc1 | 20 µM [falling, single point]
Cc1ccc(/C=C(\C#N)c2nc(-c3ccc(-c4ccccc4)cc3)cs2)cc1 | 0.0126 µM [falling, full curve]
Cc1cccc(NC(=O)Cn2c(=O)n(C)c3ccccc32)c1 | 5.01 µM [falling, single point]
O=C1C2CCCN2C(c2ccccc2F)N1c1ccc(F)cc1 (configuration not stated) | 3.16 µM [falling, single point]
CN(C)CC(O)COc1cccc(OCC(O)CN(C)C)c1 (configuration not stated) | 0.631 µM [rising, single point]
Cc1nc(N2CCN(c3ccccc3)CC2)nc2c1C(=O)CC(c1ccccc1)C2 (configuration not stated) | 0.0251 µM [rising, full curve, poor fit]
CCCc1nc(Cl)c(C#N)c2c1CCCC2 | 35.5 µM [rising, single point]
O=C(Cn1nc(-c2ccc(Cl)cc2)c2ccccc2c1=O)NCC1CCCO1 (configuration not stated) | 3.98 µM [rising, full curve, poor fit]
O=C1NCC(COCc2ccco2)O1 (configuration not stated) | 5.01 µM [rising, single point]
Cc1cc2c(c(SCC(=O)N(C)c3ccccc3)n1)C(=O)OC2 | 12.6 µM [falling, partial curve, poor fit]
CCOc1ccc(Cn2nnc(C(=O)NCc3ccc(OC)cc3)c2N)cc1 | 35.5 µM [rising, partial curve]
Cc1ccc(S(=O)(=O)N2CCN(C(=O)N(c3ccccc3)c3ccccc3)CC2)cc1 | 3.16 µM [falling, single point]
N#Cc1nc(Cc2ccccc2)oc1N1CCN(c2cccc(Cl)c2)CC1 | 15.8 µM [rising, single point]
CCOc1ccc(NC(=NCc2ccc3c(c2)OCO3)SC2CC(=O)N(c3ccc(OCC)cc3)C2=O)cc1 (configuration not stated) | 0.01 µM [rising, full curve, poor fit]
O=c1c2oc3ccccc3c2[nH]c(=S)n1-c1ccccc1 | 12.6 µM [rising, partial curve]
Cc1ccc(C)c(Nc2nnc(-c3ccc(C)c(S(=O)(=O)NCC4CCCO4)c3)c3ccccc23)c1 (configuration not stated) | 0.316 µM [falling, full curve, poor fit]
COc1ccc(-c2[nH]ncc2-c2ccc3c(c2)OCCO3)c(O)c1 | 0.00794 µM [falling, full curve, poor fit]
Cc1ccc(C)c(C(=O)COc2ccccc2[N+](=O)[O-])c1 | 3.16 µM [rising, single point]
Cc1cccn2c(=O)c3cc(C(=O)NCC4CCCO4)c(=N)n(Cc4cccnc4)c3nc12 (configuration not stated) | 0.631 µM [falling, single point]
Cc1cn(S(=O)(=O)c2ccc(Br)c3ccccc23)cn1 | 12.6 µM [rising, partial curve]
Cc1ccnc(N2CCC(C(=O)Nc3ccc4c(c3)OCO4)CC2)n1 | 3.98 µM [falling, full curve]

Exported with each value named: entries from further up
CCOc1ccc(Cn2nnc(C(=O)NCc3ccc(OC)cc3)c2N)cc1
  AC50: 35.5 µM [rising, partial curve]
Cc1ccc(S(=O)(=O)N2CCN(C(=O)N(c3ccccc3)c3ccccc3)CC2)cc1
  AC50: 3.16 µM [falling, single point]

(continued)

Compound | AC50
COc1cccc(C2C(C(=O)c3cc4cccc(OC)c4o3)=C(O)C(=O)N2c2cc(C)on2)c1OC (configuration not stated) | 12.6 µM [rising, partial curve]
Cc1ccc(OCC(=O)n2nc(C)cc2C)c(Br)c1 | 1.26 µM [falling, single point]
CCOC(=O)N1CCC(NC(=O)c2cnn3cccnc23)CC1 | 0.158 µM [falling, full curve]
O=C(CN1CCc2ccccc2C1)Nc1ccccc1N1CCCCCC1 | 31.6 µM [falling, single point]
CC1(C)Cc2c(c(-c3ccco3)nc3n[nH]c(N)c23)CO1 | 0.1 µM [falling, full curve]
Cc1cccc2cc(CN(CCCO)C(=O)Nc3cccc(Cl)c3)c(=O)[nH]c12 | 0.0251 µM [rising, full curve, poor fit]
O=C(NC1CCS(=O)(=O)C1)c1cn(-c2ccccc2)nc1-c1ccccc1 (configuration not stated) | 2.51 µM [rising, partial curve]
C=C(C)Cn1c(=S)[nH]c2ccccc2c1=O | 0.0141 µM [falling, full curve, poor fit]
Clc1cccc(Cl)c1NC1=NCCN1 | 31.6 µM [falling, single point]
NC(=O)C1CCN(c2nc(-c3ccccc3)nc3c2oc2ccccc23)CC1 | 31.6 µM [rising, single point]
CN(NC(=O)COc1ccccc1)c1ccccc1 | 0.0178 µM [falling, full curve, poor fit]
CCOC(=O)c1sc(NC(=O)c2cc3n(n2)C(C(F)(F)F)CC(c2ccccc2)N3)c(C(=O)OCC)c1C (configuration not stated) | 0.398 µM [falling, full curve]
Cn1nnnc1SCC(=O)NCc1cccs1 | 15.8 µM [falling, single point]
CCn1c(O)c(/C=N/n2cnnc2)sc1=S | 0.282 µM [falling, partial curve, poor fit]
CCOC(=O)c1c(NC(=O)C2CCCO2)sc2c1CCC2 (configuration not stated) | 0.00398 µM [rising, full curve, poor fit]
O=C(C1CCN(S(=O)(=O)c2ccc3ccccc3c2)CC1)N1CCN(c2ncccn2)CC1 | 0.251 µM [falling, partial curve]
O=C(Nc1cc(C(F)(F)F)ccc1N1CCOCC1)c1ccc[n+]([O-])c1 | 3.16 µM [falling, full curve]
COC(=O)C1=CN(C)C=C(C(=O)OC)C1c1ccccc1Cl | 0.126 µM [falling, full curve, poor fit]
Cn1ncc(Br)c1C(=O)N/N=C/c1ccc(OS(=O)(=O)c2ccccc2)cc1 | 0.158 µM [falling, partial curve]
Cc1ccc(C)c(N2CCN(C(=O)CCS(=O)(=O)c3cc(Br)cc4c3N(C(=O)C3CC3)CC4)CC2)c1 | 35.5 µM [falling, single point]
CCCCNC(=O)CCn1nc(-c2ccc(Cl)cc2)c2ccccc2c1=O | 0.0501 µM [falling, full curve, poor fit]
